Reference: publication PMC6156291
Results are given in words; binding and its absence hold for the method and conditions named. In cells and extracts the contact can be indirect. Some results given as binding are weak or reduced against the parent protein; the word gives no strength. Each block holds one substance with its values, some of them ahead of it.

Protein sequences, listed by entry. Tags and fused reporters are not part of them. Lines headed by an entry give the natural chain unless they say otherwise; changes in a name come on top. Chains listed by the source or under a name are the forms on record and can include a tag or linker. Residues count along the entry.
GFP-lamin A (P02545, residues 1-646): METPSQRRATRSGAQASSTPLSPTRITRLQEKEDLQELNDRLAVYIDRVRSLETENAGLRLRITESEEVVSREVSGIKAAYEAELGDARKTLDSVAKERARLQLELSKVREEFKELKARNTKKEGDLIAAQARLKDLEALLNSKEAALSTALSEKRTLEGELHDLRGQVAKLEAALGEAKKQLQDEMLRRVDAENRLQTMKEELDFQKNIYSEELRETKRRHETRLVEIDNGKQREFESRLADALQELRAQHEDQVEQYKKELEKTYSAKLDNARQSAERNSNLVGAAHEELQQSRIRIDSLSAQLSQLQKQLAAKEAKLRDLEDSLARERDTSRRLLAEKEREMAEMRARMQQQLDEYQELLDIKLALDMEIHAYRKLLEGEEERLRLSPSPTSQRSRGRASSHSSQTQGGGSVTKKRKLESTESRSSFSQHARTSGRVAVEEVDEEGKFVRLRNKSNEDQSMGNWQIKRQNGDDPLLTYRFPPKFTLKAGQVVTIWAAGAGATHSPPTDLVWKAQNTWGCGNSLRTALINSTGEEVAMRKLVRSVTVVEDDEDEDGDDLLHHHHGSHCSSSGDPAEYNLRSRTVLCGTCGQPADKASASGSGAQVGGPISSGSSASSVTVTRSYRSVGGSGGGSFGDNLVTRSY
lamin A/C in EDMD2 fibroblasts (Y259D LMNA) (human (endogenous in dermal fibroblasts)) (P02545, form named): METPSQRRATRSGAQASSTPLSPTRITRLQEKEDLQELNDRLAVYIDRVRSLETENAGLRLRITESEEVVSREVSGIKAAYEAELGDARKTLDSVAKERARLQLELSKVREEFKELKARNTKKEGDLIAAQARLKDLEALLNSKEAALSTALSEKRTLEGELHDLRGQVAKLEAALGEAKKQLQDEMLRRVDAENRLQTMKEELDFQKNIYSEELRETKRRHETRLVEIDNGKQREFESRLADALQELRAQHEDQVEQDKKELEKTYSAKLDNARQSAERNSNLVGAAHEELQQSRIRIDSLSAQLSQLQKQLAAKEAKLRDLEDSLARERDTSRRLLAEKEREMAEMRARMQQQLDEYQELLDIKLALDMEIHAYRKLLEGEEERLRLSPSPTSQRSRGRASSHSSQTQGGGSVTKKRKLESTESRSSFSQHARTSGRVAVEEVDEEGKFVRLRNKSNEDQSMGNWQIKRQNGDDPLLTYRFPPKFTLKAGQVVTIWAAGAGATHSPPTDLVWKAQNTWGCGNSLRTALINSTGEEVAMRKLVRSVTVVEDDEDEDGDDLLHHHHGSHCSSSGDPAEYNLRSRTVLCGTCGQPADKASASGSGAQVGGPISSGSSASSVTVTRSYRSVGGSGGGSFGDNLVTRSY
lamin A/C in APS fibroblasts (P4R LMNA) (human (endogenous in dermal fibroblasts)) (P02545, form named): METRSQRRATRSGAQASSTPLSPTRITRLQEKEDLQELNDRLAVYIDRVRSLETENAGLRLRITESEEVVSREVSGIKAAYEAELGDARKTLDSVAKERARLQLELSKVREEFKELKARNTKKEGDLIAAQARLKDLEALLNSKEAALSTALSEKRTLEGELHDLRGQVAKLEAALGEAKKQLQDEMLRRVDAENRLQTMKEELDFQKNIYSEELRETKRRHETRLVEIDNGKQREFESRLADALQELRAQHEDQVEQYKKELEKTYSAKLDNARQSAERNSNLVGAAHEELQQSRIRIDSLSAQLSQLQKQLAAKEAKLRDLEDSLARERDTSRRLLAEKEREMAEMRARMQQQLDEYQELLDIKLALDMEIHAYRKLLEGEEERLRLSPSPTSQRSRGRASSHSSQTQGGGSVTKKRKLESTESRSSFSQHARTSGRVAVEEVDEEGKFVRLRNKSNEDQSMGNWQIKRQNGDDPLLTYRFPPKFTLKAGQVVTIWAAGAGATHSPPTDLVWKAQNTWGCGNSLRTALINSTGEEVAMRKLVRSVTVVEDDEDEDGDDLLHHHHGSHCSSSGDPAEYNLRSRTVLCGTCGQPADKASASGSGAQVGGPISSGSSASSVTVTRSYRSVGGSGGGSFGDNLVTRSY
lamin A/C in MADA fibroblasts (R527H LMNA) (human (endogenous in dermal fibroblasts)) (P02545, form named): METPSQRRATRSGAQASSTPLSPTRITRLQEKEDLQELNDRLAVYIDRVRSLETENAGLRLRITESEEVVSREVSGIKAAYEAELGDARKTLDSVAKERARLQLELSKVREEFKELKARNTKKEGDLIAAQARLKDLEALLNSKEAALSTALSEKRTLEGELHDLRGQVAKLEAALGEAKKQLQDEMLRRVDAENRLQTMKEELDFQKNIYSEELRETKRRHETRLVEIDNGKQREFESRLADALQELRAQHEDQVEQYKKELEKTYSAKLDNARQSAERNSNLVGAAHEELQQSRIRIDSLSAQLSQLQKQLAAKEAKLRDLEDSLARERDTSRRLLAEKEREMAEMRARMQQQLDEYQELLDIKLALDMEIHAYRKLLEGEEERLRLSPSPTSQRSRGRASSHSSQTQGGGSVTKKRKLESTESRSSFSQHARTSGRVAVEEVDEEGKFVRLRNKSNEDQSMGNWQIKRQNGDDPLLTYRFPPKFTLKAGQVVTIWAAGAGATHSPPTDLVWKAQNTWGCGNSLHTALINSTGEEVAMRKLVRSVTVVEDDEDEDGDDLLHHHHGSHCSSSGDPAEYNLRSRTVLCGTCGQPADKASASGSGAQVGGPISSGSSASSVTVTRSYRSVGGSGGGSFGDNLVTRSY
UniProt Q92769: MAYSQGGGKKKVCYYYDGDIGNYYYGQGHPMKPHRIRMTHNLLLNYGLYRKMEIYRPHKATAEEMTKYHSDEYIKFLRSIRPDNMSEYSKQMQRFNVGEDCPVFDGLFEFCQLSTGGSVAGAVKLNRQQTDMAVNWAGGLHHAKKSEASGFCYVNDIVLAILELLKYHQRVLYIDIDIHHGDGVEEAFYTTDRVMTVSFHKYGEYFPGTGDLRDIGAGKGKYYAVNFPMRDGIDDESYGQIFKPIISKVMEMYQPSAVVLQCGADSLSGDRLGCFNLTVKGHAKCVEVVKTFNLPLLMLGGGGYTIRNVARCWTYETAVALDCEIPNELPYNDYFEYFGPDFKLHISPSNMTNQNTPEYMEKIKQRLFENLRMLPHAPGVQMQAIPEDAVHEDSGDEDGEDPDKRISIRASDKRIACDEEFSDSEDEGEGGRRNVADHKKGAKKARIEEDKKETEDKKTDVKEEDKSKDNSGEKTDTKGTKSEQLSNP
UniProt Q06413: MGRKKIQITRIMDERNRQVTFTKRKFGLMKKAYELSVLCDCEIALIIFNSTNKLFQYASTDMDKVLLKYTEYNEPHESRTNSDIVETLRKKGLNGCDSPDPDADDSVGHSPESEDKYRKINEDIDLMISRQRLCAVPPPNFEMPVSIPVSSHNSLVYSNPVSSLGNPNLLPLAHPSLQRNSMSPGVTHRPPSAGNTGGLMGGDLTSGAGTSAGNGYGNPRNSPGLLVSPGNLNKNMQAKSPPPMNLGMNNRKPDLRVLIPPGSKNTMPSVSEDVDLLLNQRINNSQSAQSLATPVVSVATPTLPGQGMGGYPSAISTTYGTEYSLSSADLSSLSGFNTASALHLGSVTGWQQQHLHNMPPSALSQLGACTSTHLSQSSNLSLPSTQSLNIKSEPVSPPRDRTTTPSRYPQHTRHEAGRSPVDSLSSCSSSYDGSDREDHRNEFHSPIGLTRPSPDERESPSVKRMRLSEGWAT

Legend:
[1] = biological target: lamin A/C (control human dermal fibroblasts) (human (endogenous in dermal fibroblasts)) (UniProt P02545); assay: proximity ligation; in situ PLA (Duolink), methanol-fixed control human dermal fibroblasts, primary antibodies overnight at 4°C, 300 nuclei counted; untreated, also 4 hr H2O2, 48 hr recovery, MS275 5 µM 18 hr, HDAC2 or lamin A/C siRNA
[2] = biological target: lamin A/C in HGPS fibroblasts (G608G LMNA) (human (endogenous in dermal fibroblasts)) (UniProt P02545); assay: co-IP; endogenous proteins; nuclear extracts (about 350 µg) of normal or HGPS dermal fibroblasts in 50 mM Tris-HCl pH 8, 150 mM NaCl, 0.1% SDS, 1% NP-40; 4 µg anti-lamin A/C overnight at 4°C, protein A/G; western blot of HDAC2
[3] = biological target: lamin A/C (control human dermal fibroblasts) (human (endogenous in dermal fibroblasts)) (UniProt P02545); assay: as above
[4] = biological target: lamin A/C in HGPS fibroblasts (G608G LMNA) (human (endogenous in dermal fibroblasts)) (UniProt P02545); assay: proximity ligation; in situ PLA (Duolink), methanol-fixed HGPS patient fibroblasts (G608G LMNA), 300 nuclei counted; untreated, also 4 hr H2O2 and 48 hr recovery
[5] = biological target: lamin A/C in EDMD2 fibroblasts (Y259D LMNA) (human (endogenous in dermal fibroblasts)) (UniProt P02545); assay: proximity ligation; in situ PLA (Duolink), methanol-fixed fibroblasts of APS (P4R), MADA (R527H) or EDMD2 (Y259D) patients, compared with controls
[6] = biological target: lamin A/C in APS fibroblasts (P4R LMNA) (human (endogenous in dermal fibroblasts)) (UniProt P02545); assay: as above
[7] = biological target: lamin A/C in MADA fibroblasts (R527H LMNA) (human (endogenous in dermal fibroblasts)) (UniProt P02545); assay: as above
[8] = biological target: lamin A/C (control human dermal fibroblasts) (human (endogenous in dermal fibroblasts)) (UniProt P02545); assay: proximity ligation; in situ PLA (Duolink) of lamin A/C and HDAC2 in control fibroblasts transfected with WT FLAG-lamin A or FLAG-progerin (48 hr); nuclei of the same FLAG fluorescence intensity compared
GFP-lamin A = GFP-lamin A (UniProt P02545); assay: co-IP; transfected HEK293 cells; lysate in 50 mM Tris-HCl pH 8, 300 mM NaCl, 0.1% SDS, 1% NP-40; 700 µg lysate, 3 µg anti-GFP overnight, protein A/G, 3 washes in IP buffer; western blot; nonspecific IgG as negative control
wild-type FLAG-HDAC2 = wild-type FLAG-HDAC2 (UniProt Q92769); assay: co-IP; transfected HEK293 cells; lysate in 50 mM Tris-HCl pH 8, 300 mM NaCl, 0.1% SDS, 1% NP-40; 700 µg lysate, 1 µg anti-FLAG overnight, protein A/G, 3 washes in IP buffer; western blot; nonspecific IgG as negative control
FLAG-lamin A = FLAG-lamin A (UniProt P02545); assay: as above

binding [1]: no binding
Substance: MEF2C (endogenous, control fibroblasts) (from UniProt Q06413 1-473)

binding [2]: binds | binding [3]: binds | binding [1]: binds | binding [4]: binds | binding [5]: binds | binding [6]: binds | binding [7]: binds | binding [8]: binds
Substance: endogenous HDAC2 (human dermal fibroblasts) (from UniProt Q92769 1-488) (enzyme)

binding (GFP-lamin A): binds
Substance: phosphomimetic FLAG-HDAC2 S394D (from UniProt Q92769 1-488) (enzyme)

binding (GFP-lamin A): binds
Substance: nonphosphorylable FLAG-HDAC2 S394A (from UniProt Q92769 1-488) (enzyme)

binding [1]: binds | binding [4]: binds
Substance: phosphorylated form of HDAC2 (serine 394) (from UniProt Q92769 1-488) (enzyme)

binding (wild-type FLAG-HDAC2): binds
Substance: GFP-lamin A (from UniProt P02545 1-646)

binding (FLAG-lamin A): binds
Substance: endogenous HDAC2 (HEK293 cells) (from UniProt Q92769 1-488) (enzyme)

binding (GFP-lamin A): binds
Substance: wild-type FLAG-HDAC2 (from UniProt Q92769 1-488) (enzyme)
